The target of this assay is T1, myc-tagged UNC45A WT (human) (UniProt Q9H3U1).
T1 sequence: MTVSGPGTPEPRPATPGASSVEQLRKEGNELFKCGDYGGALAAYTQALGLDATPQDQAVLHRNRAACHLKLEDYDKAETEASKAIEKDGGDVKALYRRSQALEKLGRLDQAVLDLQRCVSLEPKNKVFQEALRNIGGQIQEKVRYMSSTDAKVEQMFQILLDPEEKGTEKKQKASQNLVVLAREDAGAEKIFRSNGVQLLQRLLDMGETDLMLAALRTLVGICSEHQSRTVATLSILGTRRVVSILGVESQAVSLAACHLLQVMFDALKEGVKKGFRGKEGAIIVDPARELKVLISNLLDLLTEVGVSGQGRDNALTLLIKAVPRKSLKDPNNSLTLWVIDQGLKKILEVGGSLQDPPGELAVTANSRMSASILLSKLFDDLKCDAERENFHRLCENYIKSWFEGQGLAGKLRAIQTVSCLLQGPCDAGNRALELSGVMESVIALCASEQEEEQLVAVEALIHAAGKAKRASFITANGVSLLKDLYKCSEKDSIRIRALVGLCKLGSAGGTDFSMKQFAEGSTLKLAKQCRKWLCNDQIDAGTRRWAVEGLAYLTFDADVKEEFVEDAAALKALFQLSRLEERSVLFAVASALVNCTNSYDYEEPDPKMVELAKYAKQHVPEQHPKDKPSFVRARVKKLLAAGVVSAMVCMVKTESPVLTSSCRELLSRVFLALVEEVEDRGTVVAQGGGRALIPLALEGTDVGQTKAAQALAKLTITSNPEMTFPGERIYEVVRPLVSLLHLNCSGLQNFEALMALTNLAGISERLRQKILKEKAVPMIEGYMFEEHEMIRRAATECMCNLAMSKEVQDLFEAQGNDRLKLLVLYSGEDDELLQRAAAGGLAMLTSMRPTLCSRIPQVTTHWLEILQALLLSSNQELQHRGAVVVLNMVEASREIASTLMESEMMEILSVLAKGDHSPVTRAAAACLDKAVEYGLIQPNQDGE
As to the kind of experiment: co-IP; myc immunoprecipitates of WT-UNC45A from Caco-2 lysate (μMACS c-myc Isolation Kit), Western blot for myosin VB and HSP90.

No constants are given. Whether binding was seen depends on the method and setting. Binding seen in cells or lysates may run through a third protein. Binding calls can cover weak binding; strength is not graded here. Sequences can lack the tags named with a protein.

For HSP90 (human (endogenous in Caco-2)), the binding result is reported as “binds”.

The values above are taken from PMC9106349.
